Reference: PubChem BioAssay AID2284095 (EPA ToxCast)
Inconclusive results, whose numbers are uncertain, are shown with a selection of clear calls. Where the call is inconclusive, the potency comes from a doubtful curve fit. Active and inactive are the calls of the source. The calls were made as follows: active = hit-call score of the fitted dose curve at least 0.9, where 1 is the maximum; inconclusive = response in the unintended direction; inactive = score below 0.9.

The chains behind the UniProt entries cited, without tags or fusion partners. Where a name states a change or a piece, a line headed by the entry shows the natural chain unless it says otherwise.
UniProt P08246: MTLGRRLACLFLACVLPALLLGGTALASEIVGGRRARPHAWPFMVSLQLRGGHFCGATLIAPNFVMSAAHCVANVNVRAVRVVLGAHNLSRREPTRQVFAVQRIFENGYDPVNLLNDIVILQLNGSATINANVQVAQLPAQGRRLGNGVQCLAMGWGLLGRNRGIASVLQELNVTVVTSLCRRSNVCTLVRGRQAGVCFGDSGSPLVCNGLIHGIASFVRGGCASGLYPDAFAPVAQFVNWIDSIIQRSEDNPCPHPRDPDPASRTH

The molecules below were run against human Chymotrypsin Serine Peptidase, ELANE (gene 1991) (UniProt P08246) (assay: ERF_FR_ENZ_hELANE: Eurofins (ERF) Enzymatic Neutrophil Elastase LeadHunter Assay for human Chymotrypsin Serine Peptidase).
Experimental: ERF_FR_ENZ_hELANE is a biochemical, single-readout assay that uses extracted gene-proteins in a cell-free assay. Measurements were taken 0.5 hour after chemical dosing in a 96-well plate. See Neutrophil Elastase Human Chymotrypsin Serine Peptidase Enzymatic Assay, Cerep.ERF_FR_ENZ_hELANE is an assay component calculated from the ERF_FR_ENZ_hELANE assay. It is designed to measure enzyme activity using a type of enzyme reporter as detected by absorbance with spectrophotometry technology.Data from the assay component ERF_FR_ENZ_hELANE was analyzed at the assay endpoint, ERF_FR_ENZ_hELANE, in the positive analysis fitting direction relative to DMSO as the negative control and baseline of activity. Using a type of enzyme reporter, loss-of-signal activity can be used to understand changes in enzymatic activity as they relate to gene ELANE. To generalize the intended target to other relatable targets, this assay endpoint is annotated to the protease intended target family, where the subfamily is serine peptidase.
Human cells are incubated for 30 minutes at 37 C with MeOSAAPV-pNa (0.4 mM) as sunstrate and 3',4'dichloroisocoumarin as control inhibitor. Test Sample Requirements: Minimum for 1) Screen: 60 ul of 10 mM stock -OR- 1 mg (pre-weighed) for 10 uM final testing. 2) Dose Response: 90 ul of 10 mM stock -OR- 1 mg (pre-weighed) for a top concentration at 10 uM.

Question: For `CCCCC[C@H](O)CC(=O)CCc1ccc(O)c(OC)c1`, which AC50 is on record?
Answer: The AC50 was inconclusive: 0.0282 µM.

Question: With `COc1cc(/C=C/C(=O)CC(=O)/C=C/c2ccc(O)c(OC)c2)ccc1O` as the molecule, how does the outcome read?
Answer: Its outcome is “inactive”.
